Experimental data as given in US10487093B2, “Heterocyclic compounds, in particular 2-oxo-4,4,5,5,6,6,7,7-octahydrobenzoxazole derivatives, and their use as antibacterial compounds” (priority 2016, dated 2019).
Like-named read-outs stand apart in the source and are kept apart here. Some entries share one result that the patent states for a list of compounds.

System: Gram-negative and Gram-positive bacterial strains
Format: cell-based

Molecule: N#Cc1cccc(-c2cccc(CN[C@H]3CC[C@H]4[C@@H](C3)OC(=O)N4c3ccc4c(n3)NC(=O)CO4)c2O)n1 [Compound 18, 6-[3-({[(3aS,6S,7aR)-2-oxo-3-{3-oxo-2H,3H,4H-pyrido[3,2-b][1,4]oxazin-6-yl}-octahydro-1,3-benzoxazol-6-yl]amino}methyl)-2-hydroxyphenyl]pyridine-2-carbonitrile]
- activity against the Gram-positive strains S. aureus and S. pneumoniae (in words) (S. aureus and S. pneumoniae): excellent activity

Molecule: CSc1ncc2ccc(=O)n(CCN[C@H]3CC[C@H]4[C@@H](C3)OC(=O)N4c3ccc4c(n3)NC(=O)CO4)c2n1 [Compound 53, (3aS,6S,7aR)-6-({2-[2-(methylsulfanyl)-7-oxo-7H,8H-pyrido[2,3-d]pyrimidin-8-yl]ethyl}amino)-3-{3-oxo-2H,3H,4H-pyrido[3,2-b][1,4]oxazin-6-yl}-octahydro-1,3-benzoxazol-2-one]
- activity against the Gram-positive strains S. aureus and S. pneumoniae (in words) (S. aureus and S. pneumoniae): excellent activity

Molecule: O=C1COc2ccc(N3C(=O)O[C@H]4C[C@@H](NCCCn5c(=O)cnc6ccc(F)cc65)CC[C@@H]43)nc2N1 [Compound 92, 1-(3-{[(3aS,6S,7aS)-2-oxo-3-{3-oxo-2H,3H,4H-pyrido[3,2-b][1,4]oxazin-6-yl}-octahydro-1,3-benzoxazol-6-yl]amino}propyl)-7-fluoro-1,2-dihydroquinoxalin-2-one]
- activity against all strains of A. baumannii, E. coli, E. cloacae, P. aeruginosa and H. influenzae strains tested (in words): excellent activity
- activity against the Gram-positive strains S. aureus and S. pneumoniae (in words) (S. aureus and S. pneumoniae): excellent activity

Molecule: COc1ncc2ccc(=O)n(CCN[C@@H]3CC[C@@H]4[C@@H](C3)OC(=O)N4c3ncc4c(n3)NC(=O)CO4)c2n1 [Compound 33, (3aR,6R,7aR)-6-[(2-{2-methoxy-7-oxo-7H,8H-pyrido[2,3-d]pyrimidin-8-yl}ethyl)amino]-3-{7-oxo-6H,7H,8H-pyrimido[5,4-b][1,4]oxazin-2-yl}-octahydro-1,3-benzoxazol-2-one]
- activity against the Gram-positive strains S. aureus and S. pneumoniae (in words) (S. aureus and S. pneumoniae): excellent activity

Molecule: COc1ncc2ccc(=O)n(CCN[C@@H]3CC[C@@H]4[C@@H](C3)OC(=O)N4c3ccc4c(n3)NC(=O)CO4)c2n1 [Compound 2, (3aR,6R,7aR)-6-[(2-{2-methoxy-7-oxo-7H,8H-pyrido[2,3-d]pyrimidin-8-yl}ethyl)amino]-3-(3-oxo-2H,3H,4H-pyrido[3,2-b][1,4]oxazin-6-yl}-octahydro-1,3-benzoxazol-2-one]
- activity against the Gram-positive strains S. aureus and S. pneumoniae (in words) (S. aureus and S. pneumoniae): excellent activity

Molecule: NCCCOc1ccc2ccc(=O)n(CCN[C@@H]3CC[C@@H]4[C@@H](C3)OC(=O)N4c3ccc4c(n3)NC(=O)CO4)c2c1 [Compound 3, 1-(2-{[(3aR,6R,7aR)-2-oxo-3-{3-oxo-2H,3H,4H-pyrido[3,2-b][1,4]oxazin-6-yl}-octahydro-1,3-benzoxazol-6-yl]amino}ethyl)-7-(3-aminopropoxy)-1,2-dihydroquinolin-2-one]
- activity against the Gram-positive strains S. aureus and S. pneumoniae (in words) (S. aureus and S. pneumoniae): excellent activity

Molecule: N#Cc1ccc2ccc(=O)n(CCN[C@H]3CC[C@H]4[C@@H](C3)OC(=O)N4c3ccc4c(n3)NC(=O)CO4)c2c1 [Compound 14, 1-(2-{[(3aS,6S,7aR)-2-oxo-3-{3-oxo-2H,3H,4H-pyrido[3,2-b][1,4]oxazin-6-yl}-octahydro-1,3-benzoxazol-6-yl]amino}ethyl)-2-oxo-1,2-dihydroquinoline-7-carbonitrile]
- activity against all strains of A. baumannii, E. coli, E. cloacae, P. aeruginosa and H. influenzae strains tested (in words): excellent activity
- activity against the Gram-positive strains S. aureus and S. pneumoniae (in words) (S. aureus and S. pneumoniae): excellent activity

Molecule: C=CCOc1ccc2ccc(=O)n(CCN[C@H]3CC[C@H]4[C@H](C3)OC(=O)N4c3ccc4c(n3)NC(=O)CO4)c2c1 [Compound 89, 1-(2-{[(3aS,6S,7aS)-2-oxo-3-{3-oxo-2H,3H,4H-pyrido[3,2-b][1,4]oxazin-6-yl}-octahydro-1,3-benzoxazol-6-yl]amino}ethyl)-7-(prop-2-en-1-yloxy)-1,2-dihydroquinolin-2-one]
- activity against the Gram-positive strains S. aureus and S. pneumoniae (in words) (S. aureus and S. pneumoniae): excellent activity

Molecule: COc1cnc2ccc(=O)n(CCN[C@@H]3CC[C@@H]4[C@@H](C3)OC(=O)N4c3ncc4c(n3)NC(=O)CO4)c2c1 [Compound 41, 1-(2-{[(3aR,6R,7aR)-2-oxo-3-{7-oxo-6H,7H,8H-pyrimido[5,4-b][1,4]oxazin-2-yl}-octahydro-1,3-benzoxazol-6-yl]amino}ethyl)-7-methoxy-1,2-dihydro-1,5-naphthyridin-2-one]
- activity against the Gram-positive strains S. aureus and S. pneumoniae (in words) (S. aureus and S. pneumoniae): excellent activity

Molecule: COc1ccc2ccc(=O)n(CCN[C@H]3CC[C@H]4[C@H](C3)OC(=O)N4c3ccc4c(n3)NC(=O)CO4)c2c1 [Compound 102, 1-(2-{[(3aS,6S,7aS)-2-oxo-3-{3-oxo-2H,3H,4H-pyrido[3,2-b][1,4]oxazin-6-yl}-octahydro-1,3-benzoxazol-6-yl]amino}ethyl)-7-methoxy-1,2-dihydroquinolin-2-one]
- activity against the Gram-positive strains S. aureus and S. pneumoniae (in words) (S. aureus and S. pneumoniae): excellent activity

Molecule: O=C1COc2ccc(N3C(=O)O[C@H]4C[C@@H](NCCn5c(=O)cnc6cc(F)c(F)cc65)CC[C@@H]43)nc2N1 [Compound 34, 1-(2-{[(3aS,6S,7aS)-2-oxo-3-{3-oxo-2H,3H,4H-pyrido[3,2-b][1,4]oxazin-6-yl}-octahydro-1,3-benzoxazol-6-yl]amino}ethyl)-6,7-difluoro-1,2-dihydroquinoxalin-2-one]
- activity against the Gram-positive strains S. aureus and S. pneumoniae (in words) (S. aureus and S. pneumoniae): excellent activity

Molecule: COc1ccc2ccc(=O)n(CCN[C@H]3CC[C@H]4[C@@H](C3)OC(=O)N4c3ccc4c(n3)NC(=O)CO4)c2n1 [Compound 4, 1-(2-{[(3aS,6S,7aR)-2-oxo-3-{3-oxo-2H,3H,4H-pyrido[3,2-b][1,4]oxazin-6-yl}-octahydro-1,3-benzoxazol-6-yl]amino}ethyl)-7-methoxy-1,2-dihydro-1,8-naphthyridin-2-one]
- activity against the Gram-positive strains S. aureus and S. pneumoniae (in words) (S. aureus and S. pneumoniae): excellent activity

Molecule: N#Cc1ccc2ccc(=O)n(CCN[C@H]3CC[C@H]4[C@@H](C3)OC(=O)N4c3ccc4c(n3)NC(=O)CO4)c2n1 [Compound 15, 8-(2-{[(3aS,6S,7aR)-2-oxo-3-{3-oxo-2H,3H,4H-pyrido[3,2-b][1,4]oxazin-6-yl}-octahydro-1,3-benzoxazol-6-yl]amino}ethyl)-7-oxo-7,8-dihydro-1,8-naphthyridine-2-carbonitrile]
- activity against the Gram-positive strains S. aureus and S. pneumoniae (in words) (S. aureus and S. pneumoniae): excellent activity

Molecule: 1-[(2S)-3-{[(3aS,6S,7aS)-2-oxo-3-{3-oxo-2H,3H,4H-pyrido[3,2-b][1,4]oxazin-6-yl}-octahydro-1,3-benzoxazol-6-yl]amino}-2-hydroxypropyl]-7-fluoro-1,2-dihydroquinoxalin-2-one & 1-[(2R)-3-{[(3aS,6S,7aS)-2-oxo-3-{3-oxo-2H,3H,4H-pyrido[3,2-b][1,4]oxazin-6-yl}-octahydro-1,3-benzoxazol-6-yl]amino}-2-hydroxypropyl]-7-fluoro-1,2-dihydroquinoxalin-2-one [Compound 95]
- activity against the Gram-positive strains S. aureus and S. pneumoniae (in words): excellent activity

Molecule: O=C1COc2cnc(N3C(=O)O[C@@H]4C[C@H](NCCn5c(=O)cnc6cc(F)c(F)cc65)CC[C@H]43)nc2N1 [Compound 38, 1-(2-{[(3aR,6R,7aR)-2-oxo-3-{7-oxo-6H,7H,8H-pyrimido[5,4-b][1,4]oxazin-2-yl}-octahydro-1,3-benzoxazol-6-yl]amino}ethyl)-6,7-difluoro-1,2-dihydroquinoxalin-2-one]
- activity against the Gram-positive strains S. aureus and S. pneumoniae (in words) (S. aureus and S. pneumoniae): excellent activity

Molecule: COc1cnc2ccc(=O)n(CCN[C@@H]3CC[C@@H]4[C@@H](C3)OC(=O)N4c3ccc4c(n3)NC(=O)CO4)c2n1 [Compound 87, (3aR,6R,7aR)-6-[(2-{3-methoxy-6-oxo-5H,6H-pyrido[2,3-b]pyrazin-5-yl}ethyl)amino]-3-{3-oxo-2H,3H,4H-pyrido[3,2-b][1,4]oxazin-6-yl}-octahydro-1,3-benzoxazol-2-one]
- activity against all strains of A. baumannii, E. coli, E. cloacae, P. aeruginosa and H. influenzae strains tested (in words): excellent activity
- activity against the Gram-positive strains S. aureus and S. pneumoniae (in words) (S. aureus and S. pneumoniae): excellent activity

Molecule: N#Cc1ccc2ccc(=O)n(CCN[C@@H]3CC[C@@H]4[C@@H](C3)OC(=O)N4c3ccc4c(n3)NC(=O)CO4)c2c1 [Compound 59, 1-(2-{[(3aR,6R,7aR)-2-oxo-3-{3-oxo-2H,3H,4H-pyrido[3,2-b][1,4]oxazin-6-yl}-octahydro-1,3-benzoxazol-6-yl]amino}ethyl)-2-oxo-1,2-dihydroquinoline-7-carbonitrile]
- activity against all strains of A. baumannii, E. coli, E. cloacae, P. aeruginosa and H. influenzae strains tested (in words): excellent activity
- activity against the Gram-positive strains S. aureus and S. pneumoniae (in words) (S. aureus and S. pneumoniae): excellent activity

Molecule: N#Cc1ccc2ccc(=O)n(CCN[C@H]3CC[C@H]4[C@H](C3)OC(=O)N4c3ccc4c(n3)NC(=O)CO4)c2c1 [Compound 56, 1-(2-{[(3aS,6S,7aS)-2-oxo-3-{3-oxo-2H,3H,4H-pyrido[3,2-b][1,4]oxazin-6-yl}-octahydro-1,3-benzoxazol-6-yl]amino}ethyl)-2-oxo-1,2-dihydroquinoline-7-carbonitrile]
- activity against the Gram-positive strains S. aureus and S. pneumoniae (in words) (S. aureus and S. pneumoniae): excellent activity

Molecule: COc1ccc2ncc(=O)n(CCNC3CCC4C(C3)OC(=O)N4c3ccc4c(n3)NC(=O)CO4)c2n1 (stereo in doubt) [Compound 43, (3aR,6R,7aR)-6-[(2-{6-methoxy-3-oxo-3H,4H-pyrido[2,3-b]pyrazin-4-yl}ethyl)amino]-3-{3-oxo-2H,3H,4H-pyrido[3,2-b][1,4]oxazin-6-yl}-octahydro-1,3-benzoxazol-2-one]
- activity against all strains of A. baumannii, E. coli, E. cloacae, P. aeruginosa and H. influenzae strains tested (in words): excellent activity
- activity against the Gram-positive strains S. aureus and S. pneumoniae (in words) (S. aureus and S. pneumoniae): excellent activity

Molecule: COc1cnc2ccc(=O)n(CCN[C@H]3CC[C@H]4[C@@H](C3)OC(=O)N4c3ccc4c(n3)NC(=O)CO4)c2c1 [Compound 30, 1-(2-{[(3aS,6S,7aR)-2-oxo-3-{3-oxo-2H,3H,4H-pyrido[3,2-b][1,4]oxazin-6-yl}-octahydro-1,3-benzoxazol-6-yl]amino}ethyl)-7-methoxy-1,2-dihydro-1,5-naphthyridin-2-one]
- activity against the Gram-positive strains S. aureus and S. pneumoniae (in words) (S. aureus and S. pneumoniae): excellent activity

Molecule: N#Cc1cccc(-c2cccc(CN[C@H]3CC[C@H]4[C@H](C3)OC(=O)N4c3ccc4c(n3)NC(=O)CO4)c2)n1 [Compound 57, 6-[3-({[(3aS,6S,7aS)-2-oxo-3-{3-oxo-2H,3H,4H-pyrido[3,2-b][1,4]oxazin-6-yl}-octahydro-1,3-benzoxazol-6-yl]amino}methyl)phenyl]pyridine-2-carbonitrile]
- activity against the Gram-positive strains S. aureus and S. pneumoniae (in words) (S. aureus and S. pneumoniae): excellent activity
